No constants are given. Whether binding was seen depends on the method and setting. In cells and extracts the contact can be indirect.
Target: PPARα-Flag with truncating mutation in the D domain (UniProt Q07869)
Experiment: co-IP; HepG2 cells transfected with RAN-HA or PPARα-Flag constructs, 1 mg protein immunoprecipitated with Flag/HA-beads overnight, western blot

Amino acid sequences for entries named in this document (tags omitted). A change or cut given only in a name is not applied to a line headed by its entry.
UniProt Q07869: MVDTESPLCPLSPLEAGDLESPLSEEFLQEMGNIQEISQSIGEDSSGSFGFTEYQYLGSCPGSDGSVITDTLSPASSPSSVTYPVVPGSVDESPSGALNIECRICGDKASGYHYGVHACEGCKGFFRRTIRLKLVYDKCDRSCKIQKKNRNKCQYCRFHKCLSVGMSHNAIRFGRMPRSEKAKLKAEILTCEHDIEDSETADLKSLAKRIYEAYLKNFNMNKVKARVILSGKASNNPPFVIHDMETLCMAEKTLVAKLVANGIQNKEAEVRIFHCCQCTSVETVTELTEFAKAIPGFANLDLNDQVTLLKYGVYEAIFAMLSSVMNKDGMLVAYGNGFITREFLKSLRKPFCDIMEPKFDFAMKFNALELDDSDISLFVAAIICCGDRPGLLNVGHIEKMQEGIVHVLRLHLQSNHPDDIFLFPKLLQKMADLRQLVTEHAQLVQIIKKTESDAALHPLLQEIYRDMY
UniProt O14980: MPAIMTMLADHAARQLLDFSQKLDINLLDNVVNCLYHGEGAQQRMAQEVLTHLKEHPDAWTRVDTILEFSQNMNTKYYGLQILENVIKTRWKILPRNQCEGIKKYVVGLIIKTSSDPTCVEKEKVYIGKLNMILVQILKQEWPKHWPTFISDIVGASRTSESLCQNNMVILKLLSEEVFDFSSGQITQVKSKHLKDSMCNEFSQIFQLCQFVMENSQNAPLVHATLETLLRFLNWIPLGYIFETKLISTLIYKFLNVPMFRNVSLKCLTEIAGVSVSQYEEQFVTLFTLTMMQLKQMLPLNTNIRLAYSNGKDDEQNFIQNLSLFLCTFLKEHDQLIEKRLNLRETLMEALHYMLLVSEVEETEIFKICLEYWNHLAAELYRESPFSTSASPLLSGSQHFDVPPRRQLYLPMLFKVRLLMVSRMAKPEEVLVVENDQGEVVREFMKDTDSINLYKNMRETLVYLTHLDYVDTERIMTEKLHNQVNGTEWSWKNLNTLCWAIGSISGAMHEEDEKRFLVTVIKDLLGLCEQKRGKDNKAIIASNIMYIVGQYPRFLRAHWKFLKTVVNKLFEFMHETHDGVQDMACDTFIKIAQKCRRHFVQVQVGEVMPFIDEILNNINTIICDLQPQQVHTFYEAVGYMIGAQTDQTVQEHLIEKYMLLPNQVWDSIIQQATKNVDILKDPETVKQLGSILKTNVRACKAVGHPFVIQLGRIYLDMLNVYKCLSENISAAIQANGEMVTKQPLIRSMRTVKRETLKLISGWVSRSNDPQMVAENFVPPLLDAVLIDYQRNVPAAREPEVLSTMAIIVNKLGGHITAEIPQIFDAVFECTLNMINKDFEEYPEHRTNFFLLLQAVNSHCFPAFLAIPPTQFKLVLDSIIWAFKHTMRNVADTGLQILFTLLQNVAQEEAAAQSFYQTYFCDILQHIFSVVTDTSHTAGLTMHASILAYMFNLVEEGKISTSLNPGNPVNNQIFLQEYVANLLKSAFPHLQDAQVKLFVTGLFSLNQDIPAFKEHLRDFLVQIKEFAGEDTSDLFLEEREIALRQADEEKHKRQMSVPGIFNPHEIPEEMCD

## Chromosome maintenance region 1 (endogenous) (from UniProt O14980 1-1071)
  binding: no binding

From article PMC11895297
